This experiment deals with GST-BCL-RAMBO protein (human) (UniProt Q9BXK5). The experiment is described as follows: pull-down; GST or GST-BCL-RAMBO protein (25 µg) with lysate (500 µg protein) of 293T cells expressing FLAG-GRP75 and Glutathione Sepharose 4B beads, 4 °C overnight; Western blotting; only the target purified. Background: In western blotting, separated proteins are transferred to a membrane and probed.

Amino acid sequences for entries named in this document (tags omitted). A change or cut given only in a name is not applied to a line headed by its entry. Residues count along the entry.
UniProt Q9BXK5: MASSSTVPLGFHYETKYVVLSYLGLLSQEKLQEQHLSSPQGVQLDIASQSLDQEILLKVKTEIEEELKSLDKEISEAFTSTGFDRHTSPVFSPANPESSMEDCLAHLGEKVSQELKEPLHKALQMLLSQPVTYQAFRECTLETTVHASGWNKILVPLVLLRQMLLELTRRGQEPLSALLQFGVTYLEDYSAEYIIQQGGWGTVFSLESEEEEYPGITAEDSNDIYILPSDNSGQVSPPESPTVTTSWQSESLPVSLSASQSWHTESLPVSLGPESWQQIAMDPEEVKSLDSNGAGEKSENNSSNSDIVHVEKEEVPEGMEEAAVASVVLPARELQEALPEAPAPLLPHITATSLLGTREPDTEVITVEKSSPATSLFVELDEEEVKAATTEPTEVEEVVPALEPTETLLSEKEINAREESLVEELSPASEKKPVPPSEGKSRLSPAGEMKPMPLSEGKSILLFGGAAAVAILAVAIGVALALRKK
UniProt P38646, residues 47-679: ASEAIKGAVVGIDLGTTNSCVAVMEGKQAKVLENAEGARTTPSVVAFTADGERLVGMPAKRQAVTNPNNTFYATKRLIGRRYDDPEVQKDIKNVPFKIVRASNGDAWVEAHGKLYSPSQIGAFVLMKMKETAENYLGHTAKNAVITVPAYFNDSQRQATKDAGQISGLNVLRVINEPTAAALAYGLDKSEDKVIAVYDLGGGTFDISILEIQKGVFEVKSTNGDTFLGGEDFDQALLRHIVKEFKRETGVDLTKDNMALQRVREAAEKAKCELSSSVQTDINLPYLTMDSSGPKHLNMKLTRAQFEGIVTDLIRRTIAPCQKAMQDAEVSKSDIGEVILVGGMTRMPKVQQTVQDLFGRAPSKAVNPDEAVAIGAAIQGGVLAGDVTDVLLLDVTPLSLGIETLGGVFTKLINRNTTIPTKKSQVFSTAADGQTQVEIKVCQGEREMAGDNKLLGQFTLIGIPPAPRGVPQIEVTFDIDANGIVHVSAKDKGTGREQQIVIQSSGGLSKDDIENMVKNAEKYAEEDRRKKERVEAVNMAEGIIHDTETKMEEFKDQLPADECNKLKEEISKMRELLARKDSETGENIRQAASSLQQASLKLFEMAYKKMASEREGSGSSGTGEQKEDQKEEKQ

No constants are given. Whether binding was seen depends on the method and setting. In cells and extracts the contact can be indirect. A result given as binding can be weak or reduced; the word gives no strength.

Regarding “FLAG-GRP75, full-length GRP75 (1–679) (from UniProt P38646 47-679)”, the binding result is given as “binds”.

Values taken from paper PMC10462657.
